Measurements reported in PubChem BioAssay AID743454 (Peter MacCallum Cancer Centre, 2014)

Assay: 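Search for knock-downs that restore vorinostat killing in resistant colon cancer cells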 (primary screen)
System: human HCT116-VR colon cancer cells, selected for vorinostat resistance
Reagents: siRNA pool against human genes, 40 nM siRNA pool
Duration: vorinostat for 24 h, read-out about 72 h after transfection
Conditions: vorinostat at 2.5 µM final
Measured: 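Two measures, CellTiter-Fluor viability and luminescent caspase 3/7 activity, each as fold change against same-plate mock wells, mean of duplicates, then screen-wide robust z-score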
Direction: viability robust z-score: higher = more viable cells than screen typical; caspase robust z-score: higher = more caspase 3/7 activity than screen typical
Rule for the call: 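a knock-down is a hit when classed RV1 or RV2 for lowered viability, or CA1 or CA2 for caspase activation; those lethal without drug were dropped; hits were retested singly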
Here is a random part of about 18,000 reagents. 450 of all reagents (2.5%) count as active. 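Single biological run; no consistent viability z cut-off exists, so the class columns, not z-scores, define the calls.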 No sequences are given here.

gene	viability hit class	caspase hit class	viability robust z-score	caspase robust z-score	activity call
HMX1 (H6 family homeobox 1)	no change	no change	1.84	-0.48	inactive
PSMA4 (proteasome 20S subunit alpha 4)	no change	no change	-3.96	3.2	inactive
CNRIP1 (cannabinoid receptor interacting protein 1)	no change	no change	1.42	0.88	inactive
EGLN3 (egl-9 family hypoxia inducible factor 3)	no change	no change	0.9	0.18	inactive
KLHL21 (kelch like family member 21)	no change	no change	-0.1	-1.12	inactive
DUX4L1 (double homeobox 4 like 1 (pseudogene))	no change	no change	0.86	-0.74	inactive
FAM91A1 (family with sequence similarity 91 member A1)	no change	no change	0.32	-0.54	inactive
RAB37 (RAB37, member RAS oncogene family)	no change	no change	0.31	0.22	inactive
LRRC43 (leucine rich repeat containing 43)	no change	no change	-0.14	-1.02	inactive
RHOA (ras homolog family member A)	no change	no change	-1.34	0.44	inactive
DCLK3 (doublecortin like kinase 3)	no change	no change	-0.44	-0.52	inactive
FERRY3 (FERRY endosomal RAB5 effector complex subunit 3)	no change	no change	0.77	0.3	inactive
LRRC52 (leucine rich repeat containing 52)	no change	no change	0.49	-0.32	inactive
MYO1G (myosin IG)	no change	no change	-0.62	1.81	inactive
TMEM179 (transmembrane protein 179)	no change	no change	0.3	0.32	inactive
GDPGP1 (GDP-D-glucose phosphorylase 1)	no change	no change	0.49	1.23	inactive
RCVRN (recoverin)	no change	no change	-1.75	2.91	inactive
BCL3 (BCL3 transcription coactivator)	no change	CA1 (caspase activation)	-1.79	5.88	active
SLC35G1	no change	no change	0.84	-0.74	inactive
SF1 (splicing factor 1)	no change	no change	-0.17	0.04	inactive

The list goes on, starting with the last 5 of the part before.
gene	viability hit class	caspase hit class	viability robust z-score	caspase robust z-score	activity call
GDPGP1 (GDP-D-glucose phosphorylase 1)	no change	no change	0.49	1.23	inactive
RCVRN (recoverin)	no change	no change	-1.75	2.91	inactive
BCL3 (BCL3 transcription coactivator)	no change	CA1 (caspase activation)	-1.79	5.88	active
SLC35G1	no change	no change	0.84	-0.74	inactive
SF1 (splicing factor 1)	no change	no change	-0.17	0.04	inactive
HOPX (HOP homeobox)	no change	no change	0.38	1.55	inactive
ANGPTL2 (angiopoietin like 2)	no change	no change	0.39	-0.12	inactive
RIT1 (Ras like without CAAX 1)	no change	no change	0.26	0.34	inactive
ADAM8 (ADAM metallopeptidase domain 8)	no change	no change	-2.01	2.49	inactive
NCR2 (natural cytotoxicity triggering receptor 2)	no change	no change	0.56	-0.1	inactive
TNFSF9 (TNF superfamily member 9)	no change	no change	1.31	0.56	inactive
BAIAP2L1 (BAR/IMD domain containing adaptor protein 2 like 1)	no change	no change	-0.16	-0.43	inactive
CD53 (CD53 molecule)	no change	no change	-0.83	-0.82	inactive
TOX2 (TOX high mobility group box family member 2)	no change	no change	0.94	-0.44	inactive
EPHX2 (epoxide hydrolase 2)	no change	no change	1.05	2.64	inactive
C10orf120 (chromosome 10 open reading frame 120)	no change	no change	-3.16	2.83	inactive
PDILT (protein disulfide isomerase like, testis expressed)	no change	no change	-0.44	0.4	inactive
NOMO1 (NODAL modulator 1)	no change	no change	-1.29	-0.83	inactive
ERP44 (endoplasmic reticulum protein 44)	no change	no change	-0.78	0.27	inactive
OVGP1 (oviductal glycoprotein 1)	no change	no change	0.46	-0.78	inactive
OR51F1 (olfactory receptor family 51 subfamily F member 1)	no change	no change	-0.2	-0.45	inactive
EN1 (engrailed homeobox 1)	no change	no change	0.54	-0.53	inactive
REPS1 (RALBP1 associated Eps domain containing 1)	no change	no change	0.49	0.69	inactive
POLR2J (RNA polymerase II subunit J)	no change	CA2 (caspase activation)	-2.98	6.06	active
